The values below come from patent publication US20220363770A1.

No constants are given. Whether binding was seen depends on the method and setting.

For the experiment, the target named is programmed cell death protein 1 (PD1) extracellular domain. Kind of experiment: yeast-displayed Fab binding screen against PD1 ECD.

B1: anti-CGRP receptor variant 10, yeast-displayed Fab (Fab, V domains shown)
VH: QVQLVESGGGVVQPGRSLRLSCAASGFFFGSYGMHWVRQAPGKGLEWVAVISFAGEIEHYVDSVKGRFTISRDNSKNTLFLQMNSLRAEDTAVYYCARDRLNYYESSGYYHYKYYGMAVWGQGTTVTVSS
VL: QSVLTQPPSVSAAPGQKVTISCSGSSSNIGNNYVSWYQQLPGTAPKLLIYDNNKRPSGIPDRFSGSKSGTSATLGITGLQTGDEADYYCGTWDSRLSAVVFGGGTKLTVLG
Regarding B1, the binding entry was “no binding”.

B2: anti-CGRP receptor variant 12, yeast-displayed Fab (Fab, V domains shown)
VH: QVQLVESGGGVVQPGRSLRLSCAASGFTFSSFGMHWVRQAPGKGLEWVAVISFDGSIKYSVDSVKGRFTISRDNSKNTLFLQMNSLRAEDTAVYYCARDRLNYYESSGYYHYKYYGMAVWGQGTTVTVSS
VL: QSVLTQPPSVSAAPGQKVTISCSGSRSNIGRYSVSWYQQLPGTAPKLLIYDNRYRAQGIPDRFSGSKSGTSATLGITGLQTGDEADYYCGTWDWATTSVVFGGGTKLTVLG
B2: the binding entry is on record as “no binding”.

B3: anti-CGRP receptor variant 04, yeast-displayed Fab (Fab, V domains shown)
VH: QVQLVESGGGVVQPGRSLRLSCAASGFTFSSFGMHWVRQAPGKGLEWVAVISFDGSIKYSVDSVKGRFTISRDNSKNTLFLQMNSLRAEDTAVYYCARDRLNYYRSFGYYGYHYYGMAVWGQGTTVTVSS
VL: QSVLTQPPSVSAAPGQKVTISCSGSSSNIGNNYVSWYQQLPGTAPKLLIYDNNKRPSGIPDRFSGSKSGTSATLGITGLQTGDEADYYCGTWDSRLSAVVFGGGTKLTVLG
Turning to B3, the binding result is “no binding”.

B4: anti-CGRP receptor variant 09, yeast-displayed Fab (Fab, V domains shown)
VH: QVQLVESGGGVVQPGRSLRLSCAASGFTFSSFGMHWVRQAPGKGLEWVAVISFAGEIDYYVDSVKGRFTISRDNSKNTLFLQMNSLRAEDTAVYYCARDRLNYYESSGYYHYKYYGMAVWGQGTTVTVSS
VL: QSVLTQPPSVSAAPGQKVTISCSGSSSNIGNNYVSWYQQLPGTAPKLLIYDNNKRPSGIPDRFSGSKSGTSATLGITGLQTGDEADYYCGTWDSRLSAVVFGGGTKLTVLG
Consider B4, for which the binding result was “no binding”.

B5: anti-CGRP receptor variant 15, yeast-displayed Fab (Fab, V domains shown)
VH: QVQLVESGGGVVQPGRSLRLSCAASGFTFSSFGMHWVRQAPGKGLEWVAVISFDGSIKYSVDSVKGRFTISRDNSKNTLFLQMNSLRAEDTAVYYCARDRLNYYESSGYYHYKYYGMAVWGQGTTVTVSS
VL: QSVLTQPPSVSAAPGQKVTISCSGSSSNIGNNYVSWYQQLPGTAPKLLIYDNNKRPSGIPDRFSGSKSGTSATLGITGLQTGDEADYYCGTWDWWRKAVIFGGGTKLTVLG
Take B5: the binding result is listed as “no binding”.

B6: anti-CGRP receptor variant 02, yeast-displayed Fab (Fab, V domains shown)
VH: QVQLVESGGGVVQPGRSLRLSCAASGFTFSSFGMHWVRQAPGKGLEWVAVISFDGSIKYSVDSVKGRFTISRDNSKNTLFLQMNSLRAEDTAVYYCARDRLNYYESSGYYHYKYYGMAVWGQGTTVTVSS
VL: QSVLTQPPSVSAAPGQKVTISCSGSRSNIGIKAVSWYQQLPGTAPKLLIYDNNKRPSGIPDRFSGSKSGTSATLGITGLQTGDEADYYCGTWDSRLSAVVFGGGTKLTVLG
For the molecule B6, the binding entry is “no binding”.

B7: anti-CGRP receptor variant 08, yeast-displayed Fab (Fab, V domains shown)
VH: QVQLVESGGGVVQPGRSLRLSCAASGFTFSSFGMHWVRQAPGKGLEWVAVISFDGSIKYSVDSVKGRFTISRDNSKNTLFLQMNSLRAEDTAVYYCARDRLNYYESSGYYHYKYYGMAVWGQGTTVTVSS
VL: QSVLTQPPSVSAAPGQKVTISCSGSYSNIGWWPVSWYQQLPGTAPKLLIYDNNKRPSGIPDRFSGSKSGTSATLGITGLQTGDEADYYCGTWDSRLSAVVFGGGTKLTVLG
With B7, the binding result was “no binding”.

B8: anti-CGRP receptor variant 05, yeast-displayed Fab (Fab, V domains shown)
VH: QVQLVESGGGVVQPGRSLRLSCAASGFTFSSFGMHWVRQAPGKGLEWVAVISFDGSIKYSVDSVKGRFTISRDNSKNTLFLQMNSLRAEDTAVYYCARDRLNYYESSGYYHYKYYGMAVWGQGTTVTVSS
VL: QSVLTQPPSVSAAPGQKVTISCSGSFSNIGRSTVSWYQQLPGTAPKLLIYDNRWRAGGIPDRFSGSKSGTSATLGITGLQTGDEADYYCGTWDYQWKAVVFGGGTKLTVLG
Turning to B8, the binding entry was “no binding”.

B9: anti-CGRP receptor variant 06, yeast-displayed Fab (Fab, V domains shown)
VH: QVQLVESGGGVVQPGRSLRLSCAASGFTFSSFGMHWVRQAPGKGLEWVAVISFDGSIKYSVDSVKGRFTISRDNSKNTLFLQMNSLRAEDTAVYYCARDRLNYYESSGYYHYKYYGMAVWGQGTTVTVSS
VL: QSVLTQPPSVSAAPGQKVTISCSGSYSNIGRKSVSWYQQLPGTAPKLLIYDNNKRPSGIPDRFSGSKSGTSATLGITGLQTGDEADYYCGTWDSRLSAVVFGGGTKLTVLG
As for B9, the binding result is given as “no binding”.

B10: anti-CGRP receptor variant 14, yeast-displayed Fab (Fab, V domains shown)
VH: QVQLVESGGGVVQPGRSLRLSCAASGFTFSSFGMHWVRQAPGKGLEWVAVISFDGSIKYSVDSVKGRFTISRDNSKNTLFLQMNSLRAEDTAVYYCARDRLNYYESSGYYHYKYYGMAVWGQGTTVTVSS
VL: QSVLTQPPSVSAAPGQKVTISCSGSSSNIGNNYVSWYQQLPGTAPKLLIYDNNKRPSGIPDRFSGSKSGTSATLGITGLQTGDEADYYCGTWDSWHRVVTFGGGTKLTVLG
Turning to B10, the binding entry is listed as “no binding”.

B11: anti-CGRP receptor variant 13, yeast-displayed Fab (Fab, V domains shown)
VH: QVQLVESGGGVVQPGRSLRLSCAASGFTFSSFGMHWVRQAPGKGLEWVAVISFDGSIKYSVDSVKGRFTISRDNSKNTLFLQMNSLRAEDTAVYYCARDRLNYYESSGYYHYKYYGMAVWGQGTTVTVSS
VL: QSVLTQPPSVSAAPGQKVTISCSGSRSNIGRRTVSWYQQLPGTAPKLLIYDNNKRPSGIPDRFSGSKSGTSATLGITGLQTGDEADYYCGTWDSRLSAVVFGGGTKLTVLG
Take B11: the binding entry is listed as “no binding”.

B12: anti-CGRP receptor variant 01, yeast-displayed Fab (Fab, V domains shown)
VH: QVQLVESGGGVVQPGRSLRLSCAASGFTFSSFGMHWVRQAPGKGLEWVAVISFDGSIKYSVDSVKGRFTISRDNSKNTLFLQMNSLRAEDTAVYYCARDRLNYYESSGYYHYKYYGMAVWGQGTTVTVSS
VL: QSVLTQPPSVSAAPGQKVTISCSGSYSNIGRYSVSWYQQLPGTAPKLLIYDNNKRPSGIPDRFSGSKSGTSATLGITGLQTGDEADYYCGTWDSRLSAVVFGGGTKLTVLG
Take B12: the binding entry is “no binding”.

B13: anti-CGRP receptor variant 07, yeast-displayed Fab (Fab, V domains shown)
VH: QVQLVESGGGVVQPGRSLRLSCAASGFYFMTYGMHWVRQAPGKGLEWVAVISFDGSIKYSVDSVKGRFTISRDNSKNTLFLQMNSLRAEDTAVYYCARDRLNYYESSGYYHYKYYGMAVWGQGTTVTVSS
VL: QSVLTQPPSVSAAPGQKVTISCSGSSSNIGNNYVSWYQQLPGTAPKLLIYDNNKRPSGIPDRFSGSKSGTSATLGITGLQTGDEADYYCGTWDSRLSAVVFGGGTKLTVLG
Take B13: the binding entry is “no binding”.
